Results are given in words; binding and its absence hold for the method and conditions named. Binding seen in cells or lysates may run through a third protein. These calls come from enrichment with a bait or labelling near it, and not all partners need be listed.
Target: AP2-I (P. falciparum 3D7 (endogenous in nuclear extract)) (UniProt Q8IJW6)
Assay: affinity purification with mass spectrometry; DNA pull-down: biotinylated dsDNA probes (three different probes with de_novo_motif_028, …) on streptavidin Sepharose, incubated 1.5 h at 4°C with native nuclear protein extract of asynchronous P. falciparum 3D7 (150 mM NaCl, HEPES, 0.125% NP-40, tRNA, poly(dI:dC), poly(dA:dT)); same probes with scrambled motif as control; dimethyl labelling with label swap, quantitative tandem MS; the bait is DNA, proteins found enriched together

Chains of the proteins cited; added tags and fusions are not shown. Lines headed by an entry give the natural chain unless they say otherwise; changes in a name come on top.
UniProt Q8IJW6: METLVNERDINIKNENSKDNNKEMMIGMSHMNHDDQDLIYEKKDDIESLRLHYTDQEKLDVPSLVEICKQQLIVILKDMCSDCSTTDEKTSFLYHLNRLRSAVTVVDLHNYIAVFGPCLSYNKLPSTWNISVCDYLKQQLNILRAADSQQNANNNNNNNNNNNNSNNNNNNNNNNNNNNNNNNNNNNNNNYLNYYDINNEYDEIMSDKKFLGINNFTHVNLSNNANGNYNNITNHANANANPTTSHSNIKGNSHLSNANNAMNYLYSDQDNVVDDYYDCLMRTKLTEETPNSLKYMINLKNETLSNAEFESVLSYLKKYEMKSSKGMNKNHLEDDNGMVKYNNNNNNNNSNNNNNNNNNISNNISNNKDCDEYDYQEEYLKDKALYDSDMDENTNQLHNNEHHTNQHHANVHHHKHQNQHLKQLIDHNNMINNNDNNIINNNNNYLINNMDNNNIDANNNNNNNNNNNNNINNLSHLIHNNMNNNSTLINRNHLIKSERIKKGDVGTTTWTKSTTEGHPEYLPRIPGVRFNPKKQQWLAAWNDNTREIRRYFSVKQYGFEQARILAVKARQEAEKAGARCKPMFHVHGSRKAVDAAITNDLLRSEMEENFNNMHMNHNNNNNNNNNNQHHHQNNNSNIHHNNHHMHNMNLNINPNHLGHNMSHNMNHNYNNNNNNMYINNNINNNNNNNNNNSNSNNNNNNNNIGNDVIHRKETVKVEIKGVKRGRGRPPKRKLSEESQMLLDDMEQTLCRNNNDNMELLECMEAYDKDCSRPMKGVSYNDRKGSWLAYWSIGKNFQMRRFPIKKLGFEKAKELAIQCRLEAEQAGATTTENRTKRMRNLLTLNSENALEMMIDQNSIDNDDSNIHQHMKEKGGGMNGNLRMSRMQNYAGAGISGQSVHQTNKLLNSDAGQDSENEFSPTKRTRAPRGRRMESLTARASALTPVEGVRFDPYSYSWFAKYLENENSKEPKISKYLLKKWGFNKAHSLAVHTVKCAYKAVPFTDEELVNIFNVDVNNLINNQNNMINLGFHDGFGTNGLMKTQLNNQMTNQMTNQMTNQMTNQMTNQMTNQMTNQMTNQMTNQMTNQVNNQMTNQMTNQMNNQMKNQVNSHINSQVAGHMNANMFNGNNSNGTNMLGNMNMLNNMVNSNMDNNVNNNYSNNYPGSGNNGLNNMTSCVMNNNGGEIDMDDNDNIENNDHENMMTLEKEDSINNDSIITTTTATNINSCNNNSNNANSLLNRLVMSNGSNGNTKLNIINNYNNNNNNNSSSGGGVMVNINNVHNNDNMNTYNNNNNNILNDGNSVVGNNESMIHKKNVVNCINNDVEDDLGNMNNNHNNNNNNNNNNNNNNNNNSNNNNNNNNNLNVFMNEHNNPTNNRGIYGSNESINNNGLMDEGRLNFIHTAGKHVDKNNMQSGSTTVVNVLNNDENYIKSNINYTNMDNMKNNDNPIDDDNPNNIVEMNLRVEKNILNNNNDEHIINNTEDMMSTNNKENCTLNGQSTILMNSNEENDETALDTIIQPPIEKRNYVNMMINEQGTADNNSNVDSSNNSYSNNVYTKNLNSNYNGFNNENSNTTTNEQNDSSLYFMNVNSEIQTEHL
UniProt Q8IJ72: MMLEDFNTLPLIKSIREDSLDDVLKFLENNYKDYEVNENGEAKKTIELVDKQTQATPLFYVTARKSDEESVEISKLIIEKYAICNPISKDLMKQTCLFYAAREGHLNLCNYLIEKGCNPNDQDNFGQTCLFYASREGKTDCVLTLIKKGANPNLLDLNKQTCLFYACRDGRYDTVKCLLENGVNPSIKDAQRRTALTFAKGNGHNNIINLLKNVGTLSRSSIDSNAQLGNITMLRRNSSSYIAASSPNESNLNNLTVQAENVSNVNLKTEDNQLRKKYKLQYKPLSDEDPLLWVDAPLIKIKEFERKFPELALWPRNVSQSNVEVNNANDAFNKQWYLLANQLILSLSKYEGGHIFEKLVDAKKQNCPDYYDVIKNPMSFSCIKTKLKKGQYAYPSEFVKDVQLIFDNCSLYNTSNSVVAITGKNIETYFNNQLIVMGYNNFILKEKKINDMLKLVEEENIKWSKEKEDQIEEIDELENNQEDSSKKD
UniProt Q8I5S4: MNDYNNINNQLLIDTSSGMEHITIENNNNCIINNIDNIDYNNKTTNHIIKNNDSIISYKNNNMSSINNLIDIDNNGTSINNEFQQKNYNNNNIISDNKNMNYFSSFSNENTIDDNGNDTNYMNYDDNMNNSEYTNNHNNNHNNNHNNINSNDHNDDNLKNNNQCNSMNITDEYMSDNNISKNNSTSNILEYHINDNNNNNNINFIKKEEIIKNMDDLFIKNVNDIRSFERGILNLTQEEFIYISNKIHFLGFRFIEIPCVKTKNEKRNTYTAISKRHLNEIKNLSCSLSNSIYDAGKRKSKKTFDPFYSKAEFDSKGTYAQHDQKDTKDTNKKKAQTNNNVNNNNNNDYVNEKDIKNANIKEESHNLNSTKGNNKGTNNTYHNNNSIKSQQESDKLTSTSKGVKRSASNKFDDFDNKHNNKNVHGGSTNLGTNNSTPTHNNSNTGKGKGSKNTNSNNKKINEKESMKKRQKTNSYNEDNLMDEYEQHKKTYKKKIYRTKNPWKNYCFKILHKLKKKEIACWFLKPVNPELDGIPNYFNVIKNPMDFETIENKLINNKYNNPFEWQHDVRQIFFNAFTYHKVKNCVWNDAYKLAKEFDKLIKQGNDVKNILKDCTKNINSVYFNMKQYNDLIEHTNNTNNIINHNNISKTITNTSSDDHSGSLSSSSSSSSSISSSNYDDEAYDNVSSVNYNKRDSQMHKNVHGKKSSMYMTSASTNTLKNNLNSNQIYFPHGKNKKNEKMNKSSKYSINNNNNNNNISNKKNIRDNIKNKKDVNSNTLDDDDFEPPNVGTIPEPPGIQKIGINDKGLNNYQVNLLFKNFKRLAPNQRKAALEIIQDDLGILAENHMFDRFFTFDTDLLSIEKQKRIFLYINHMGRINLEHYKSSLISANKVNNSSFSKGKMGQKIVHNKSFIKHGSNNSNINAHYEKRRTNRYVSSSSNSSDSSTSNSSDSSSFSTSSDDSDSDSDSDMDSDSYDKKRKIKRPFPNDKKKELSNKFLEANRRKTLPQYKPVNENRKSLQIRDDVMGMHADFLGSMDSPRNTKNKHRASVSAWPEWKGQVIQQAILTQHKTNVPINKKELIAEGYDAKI

Substance | binding
bromodomain protein 1 (from UniProt Q8IJ72) | binds
bromodomain protein 2 (from UniProt Q8I5S4) | binds
